According to paper PMC12598048:
These are yes or no findings as the source states them, for the method shown. Binding can be weak; no strength is given.

Target: TuMV-6K2 (yeast two-hybrid bait, pBT-STE-TuMV-6K2) (turnip mosaic virus (TuMV))
Experiment: two-hybrid; preys pPR3-AtTETs or pPR3-NbTETs with bait pBT-STE-TuMV-6K2 co-transformed into yeast NMY51; ten-fold dilutions on SD/-Leu/-Trp and SD/-Leu/-Trp/-His/-Ade

B1: AtTET1 (yeast two-hybrid prey) (protein, UniProt Q9FIQ5 1-269)
chain: MPLSNNVIGCINFITVLLSIPVIGAGIWLAIGTVNSCVKLLQWPVIILGVLILLVGLAGFIGGFWRITWLLVVYLIAMLILIVLLGCLVGFIYMVTIRGSGHPEPSRAYLEYSLQDFSGWLRRRVQRSYKWERIRTCLSTTTICPELNQRYTLAQDFFNAHLDPIQSGCCKPPTKCGFTFVNPTYWISPIDMSADMDCLNWSNDQNTLCYTCDSCKAGLLANIKVDWLKADIFLLLALIGLIIVYIIGCCAFRNAETEDIFRKYKQGYT
binding: binds
